Test results: publication PMC11165193

Amino acid sequences for entries named in this document (tags omitted). A change or cut given only in a name is not applied to a line headed by its entry.
UniProt Q8K3Z0: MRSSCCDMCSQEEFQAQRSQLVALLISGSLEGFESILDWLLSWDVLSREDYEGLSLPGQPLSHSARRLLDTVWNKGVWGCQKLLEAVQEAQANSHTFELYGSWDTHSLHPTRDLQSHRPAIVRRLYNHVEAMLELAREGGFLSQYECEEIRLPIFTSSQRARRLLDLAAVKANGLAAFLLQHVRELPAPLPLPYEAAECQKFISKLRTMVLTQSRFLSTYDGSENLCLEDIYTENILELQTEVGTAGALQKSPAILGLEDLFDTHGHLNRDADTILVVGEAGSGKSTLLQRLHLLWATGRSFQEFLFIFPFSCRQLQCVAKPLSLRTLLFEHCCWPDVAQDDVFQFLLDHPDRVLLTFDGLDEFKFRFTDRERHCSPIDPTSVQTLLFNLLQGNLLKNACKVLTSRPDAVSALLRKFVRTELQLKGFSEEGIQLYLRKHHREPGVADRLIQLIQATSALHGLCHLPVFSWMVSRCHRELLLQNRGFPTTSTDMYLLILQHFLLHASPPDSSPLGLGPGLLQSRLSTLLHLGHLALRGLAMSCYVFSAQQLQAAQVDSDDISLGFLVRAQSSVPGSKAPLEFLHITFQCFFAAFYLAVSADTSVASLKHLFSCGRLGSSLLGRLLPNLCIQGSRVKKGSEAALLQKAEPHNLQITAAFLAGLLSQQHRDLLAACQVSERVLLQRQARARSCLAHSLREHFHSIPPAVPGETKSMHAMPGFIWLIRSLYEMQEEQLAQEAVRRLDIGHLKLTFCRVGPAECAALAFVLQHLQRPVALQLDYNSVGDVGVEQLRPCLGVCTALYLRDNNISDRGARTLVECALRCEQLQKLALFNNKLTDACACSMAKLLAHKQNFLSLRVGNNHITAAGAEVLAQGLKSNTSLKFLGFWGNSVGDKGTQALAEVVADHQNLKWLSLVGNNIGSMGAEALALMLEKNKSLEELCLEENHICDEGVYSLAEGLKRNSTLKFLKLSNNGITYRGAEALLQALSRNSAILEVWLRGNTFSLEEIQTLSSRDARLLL

B1: Dihydrolipoyl dehydrogenase (protein, UniProt P75393 1-457)
chain: MNYDLIIIGAGPAGYVAAEYAGKHKLKTLVVEKEYFGGVCLNVGCIPTKTLLKRAKIVDYLRHAQDYGISINGQVALNWNQLLEQKGKVVSKLVGGVKAIIASAKAETVMGEAKVLDPNTVEVAGKTYTTKSIVVATGSRPRYLTLPGFAEARQNGFVIDSTQALSLEGVPRKLVVVGGGVIGIEFAFLYASLGSEVTILQGVDRILEIFDTEVSDLVAKLLQTKNVKIITNAQVTRANNNEVFYSQNGQEGSVVGDRILVSIGRIPNTECLDGLNLQRDERNRIVLNQDLQTSIPNIYIVGDANAQLMLAHFAYQQGRYAVNHILNKKQVKPAQKLTCPSCIYTNPEVASVGYTEMELKKQGIPYVKTNLVLAHCGKAIADNETNGFVKMMFDPQTGKILGCCIIAATASDMIAELALAMGAGLTVFDIANSISPHPTINEMIADVCKKALFDHFK
B2: Pyruvate dehydrogenase E1 component subunit alpha (protein, UniProt P75390 1-358)
chain: MAILIKNKVPTTLYQVYDNEGKLMDPNHKITLSNEQLKHAFYLMNLSRIMDKKMLVWQRAGKMLNFAPNLGEEALQVGMGMGLNENDWFCPTFRSGALMLYRGVKPEQLLLYWNGNENGSKIEAKYKTLPINITIGAQYSHAAGLGYMLHYKKLPNVAVTMIGDGGTAEGEFYEAMNIASIHKWNSVFCINNNQFAISTRTKLESAVSDLSTKAIAVNIPRIRVDGNDLIASYEAMHEAANYARSGNGPVLIEFFSWRQGPHTTSDDPSIYRTKEEEAEAMKSDPVKRLRNFLFDRGILTPQQEEEMVAKIEQEVQAAYEVMVSKTPVTLDEVFDYNYEKLTPDLARQKAEAKKYFKD
B3: 30S ribosomal protein S5 (protein, UniProt Q50301 1-219)
chain: MTDQNQKANQGNGLQTTNLQAHAQRKHNLRPSSEGIKKAVSKKEGGGHNRNNQNRRFQKPAFKSEFEERIVKLKRISKTTKGGRNMRFSVLVVVGNRKGKIGYGIAKALEVPNAIKKAIKAAHNSLHTIEIHKGSIYHEVIGRSGASRVLLKPAPQGTGIIAGGAIRAIIELAGYSDIYTKNLGRNTPINMIHATMDGILKQLSPRRVAILRNKNLNEL
B4: 30S ribosomal protein S17 (protein, UniProt Q50309 1-85)
chain: MKRNQRKVLIGIVKSTKNAKTATVQVESRFKHPLYHKSVVRHKKYQAHNEGEVLAKDGDKVQIVETRPLSATKRFRIAKIIERAK
B5: Fructose-bisphosphate aldolase (protein, UniProt P75089 1-288)
chain: MLVNIKQMLQHAKQHHYAVPHININNYEWAKAVLTAAQQAKSPIIVSTSEGALKYISGHQVVVPMVKGLVDALKITVPVALHLDHGSYEGCKAALQAGFSSIMFDGSHLPFQENFTKSKELIELAKQTNASVELEVGTLGGEEDGIVGQGELANIEECKQIATLKPDALAAGIGNIHGLYPDNWKGLNYELIEAIAKATNLPLVLHGGSGIPEADVKKAIGLGISKLNINTECQLAFAKAIREYVEAKKDLDTHNKGYDPRKLLKSPTQAIVDCCLEKMQLCGSTNKA
B6: Pyruvate dehydrogenase E1 component, beta subunit (protein, UniProt P75391 1-327)
chain: MSKTIQANNIEALGNAMDLALERDPNVVLYGQDAGFEGGVFRATKGLQKKYGEERVWDCPIAEAAMAGIGVGAAIGGLKPIVEIQFSGFSFPAMFQIFTHAARIRNRSRGVYTCPIIVRMPMGGGIKALEHHSETLEAIYGQIAGLKTVMPSNPYDTKGLFLAAVESPDPVVFFEPKKLYRAFRQEIPADYYTVPIGQANLISQGNNLTIVSYGPTMFDLINMVYGGELKDKGIELIDLRTISPWDKETVFNSVKKTGRLLVVTEAAKTFTTSGEIIASVTEELFSYLKAAPQRVTGWDIVVPLARGEHYQFNLNARILEAVNQLLK
B7: Uncharacterized protein MPN_491 (protein, UniProt P75295 1-474)
chain: MKLTLWLVLGAVGVGAVGTGVGFGTKYFLDHKAKSNVDVAFKQRSLRKQVNVGFWNALNFLGSERSFGNQNSKVKTKGIAEIINLLKYDIVGLAEIQPSTESTAERFVDQLNEYADPYTSWSYDLSPVTTSKTASEGQKERILIVYNSQSVKMEGQGWFYDNPEMDISNYVSDGSSSKTRTPKKTKTSKKKPIKKKSSKSKSSKGSKKQKTTNESESETLELKLEQRRVTTRSQSKQQKGQEQATDQTDSEGVTTEEGADNTDTELVETTAETTEQEATTKSTKDTKETKDRTKVDWSRPPYSAEFSTQKGKVVVAFGHFDSPGANTKRGEKIAKMGKGQGAHEYFEAQTTFKAMDSIKQHFNNENILFMADTNIKFGNQAAAFGESKDYTFLTEDNEAWKSSLGTKSGYANPYDKIITSNSFKNKVLDQAETYWNYFDRYLKTKGHNSYLFDLASWGTKPRTISDHAPVGVLF

Biological target: GST-tagged NOD2 LRR domain (mouse) (UniProt Q8K3Z0)
Experiment: affinity purification with mass spectrometry; purified GST-LRR on glutathione-Sepharose resin (magnetic beads in the results); M. pneumoniae whole cell lysate, overnight at 4 °C; washed three times with Tris-NaCl buffer; eluate by silver staining and LC-MS/MS; GST as control; only the target purified

Binder	binding
B1	binds
B2	binds
B3	binds
B4	binds
B5	binds
B6	binds
B7	binds

Results are given in words; binding and its absence hold for the method and conditions named. Binding seen in cells or lysates may run through a third protein. These calls come from enrichment with a bait or labelling near it, and not all partners need be listed.
